Taken from: PubChem BioAssay AID1224827 (NIAID, 2016)
Here is a random part of about 3,800 reagents tested. Over the whole deposit, about 2,200 (57%) are marked active. 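Active means a strong reporter change in either direction; calls are per siRNA, not per gene; qiagen siRNAs gave weaker effects.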 A number with no mark means an inactive call. The numbers tell different reagents against one gene apart.

Screen: 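Confirm genes whose knock-down changes LPS-driven TNF promoter activity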 (follow-up of hits)
Cell system: RAW264.7 G9 mouse macrophage reporter clone
Reagent: single siRNA against mouse genes, 100 nM siRNA
Duration: siRNA for 2 days, then LPS about 16 h
Challenge: bacterial lipopolysaccharide (LPS), 10 ng/ml, cells fixed after overnight (about 16 h) stimulation
Measured: 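TNF promoter reporter red fluorescence in nuclei, background subtracted, normalised per plate and to non-targeting control siRNA, as z-scores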
Direction: TNF reporter z-score, mean and TNF reporter z-score: higher = stronger Tnf promoter reporter signal; gene median z, three same-vendor siRNAs: higher = stronger Tnf reporter signal for the gene
Rule for the call: 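An siRNA is called active when its mean z-score over replicates is at least +2 or at most -2; control wells get no call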

| gene knocked down | siRNA no. | TNF reporter z-score, mean | gene median z, three same-vendor siRNAs | TNF reporter z-score, repeat 1 | TNF reporter z-score, repeat 2 |
| --- | --- | --- | --- | --- | --- |
| Gnpnat1 (glucosamine-phosphate N-acetyltransferase 1) | 1 | 1.26 | -2.03 | -0.651 | 3.18 |
| Gnpnat1 (glucosamine-phosphate N-acetyltransferase 1) | 2 | -2.21 (active) | -2.03 | -2.76 | -1.66 |
| Gnpnat1 (glucosamine-phosphate N-acetyltransferase 1) | 3 | -3.08 (active) | -2.03 | -3.76 | -2.4 |
| Gnpnat1 (glucosamine-phosphate N-acetyltransferase 1) | 4 | 2.91 (active) | 0.377 | 4.64 | 1.19 |
| Gnpnat1 (glucosamine-phosphate N-acetyltransferase 1) | 5 | 1.91 | 0.377 | 4.25 | -0.431 |
| Gnpnat1 (glucosamine-phosphate N-acetyltransferase 1) | 6 | -3.72 (active) | 0.377 | -4.79 | -2.64 |
| Bach2 | 1 | -1.75 | -2.36 | -2.24 | -1.26 |
| Bach2 | 2 | -2.36 (active) | -2.36 | -2.49 | -2.24 |
| Bach2 | 3 | -4.32 (active) | -2.36 | -5.18 | -3.46 |
| Bach2 | 4 | -0.886 | -1.23 | -0.36 | -1.41 |
| Bach2 | 5 | -0.664 | -1.23 | 0.707 | -2.03 |
| Bach2 | 6 | -1.58 | -1.23 | -1.04 | -2.13 |
| Opn4 (opsin 4 (melanopsin)) | 1 | -2.31 (active) | -3.62 | -2.06 | -2.56 |
| Opn4 (opsin 4 (melanopsin)) | 2 | -3.19 (active) | -3.62 | -4.9 | -1.48 |
| Opn4 (opsin 4 (melanopsin)) | 3 | -4.99 (active) | -3.62 | -5.32 | -4.67 |
| Opn4 (opsin 4 (melanopsin)) | 4 | 10.4 (active) | 2.84 | 16.5 | 4.3 |
| Opn4 (opsin 4 (melanopsin)) | 5 | 1.72 | 2.84 | 4.2 | -0.763 |
| Opn4 (opsin 4 (melanopsin)) | 6 | 0.177 | 2.84 | 1.48 | -1.13 |
| Tpr (translocated promoter region, nuclear basket protein) | 1 | -4.01 (active) | -5.05 | -3.55 | -4.48 |
| Tpr (translocated promoter region, nuclear basket protein) | 2 | -5.28 (active) | -5.05 | -5.33 | -5.24 |
| Tpr (translocated promoter region, nuclear basket protein) | 3 | -5.35 (active) | -5.05 | -4.87 | -5.83 |
| Tpr (translocated promoter region, nuclear basket protein) | 4 | 1.14 | -0.217 | 2.46 | -0.185 |
| Tpr (translocated promoter region, nuclear basket protein) | 5 | 0.25 | -0.217 | 0.749 | -0.25 |
| Tpr (translocated promoter region, nuclear basket protein) | 6 | -1.43 | -0.217 | -0.571 | -2.29 |
| Tbca (tubulin cofactor A) | 1 | -1.93 | -3.23 | -2.84 | -1.02 |
| Tbca (tubulin cofactor A) | 2 | -3.23 (active) | -3.23 | -3.55 | -2.9 |
| Tbca (tubulin cofactor A) | 3 | -4.64 (active) | -3.23 | -3.71 | -5.57 |
| Tbca (tubulin cofactor A) | 4 | 3.76 (active) | 0.613 | 6.4 | 1.12 |
| Tbca (tubulin cofactor A) | 5 | -0.289 | 0.613 | 0.107 | -0.686 |
| Tbca (tubulin cofactor A) | 6 | 0.0662 | 0.613 | 1.72 | -1.59 |
| Heatr5a (HEAT repeat containing 5A) | 1 | -0.916 | -3.23 | -0.92 | -0.913 |
| Heatr5a (HEAT repeat containing 5A) | 2 | -3.23 (active) | -3.23 | -3.11 | -3.36 |
| Heatr5a (HEAT repeat containing 5A) | 3 | -3.87 (active) | -3.23 | -3.45 | -4.28 |
| Heatr5a (HEAT repeat containing 5A) | 4 | 4.82 (active) | 0.837 | 9.32 | 0.311 |
| Heatr5a (HEAT repeat containing 5A) | 5 | 0.728 | 0.837 | 2.08 | -0.624 |
| Heatr5a (HEAT repeat containing 5A) | 6 | 0.126 | 0.837 | 1.36 | -1.11 |
| Mrpl33 (mitochondrial ribosomal protein L33) | 1 | 1.23 | -4.63 | -0.127 | 2.59 |
| Mrpl33 (mitochondrial ribosomal protein L33) | 2 | -4.63 (active) | -4.63 | -4.57 | -4.68 |
| Mrpl33 (mitochondrial ribosomal protein L33) | 3 | -5.43 (active) | -4.63 | -5.57 | -5.28 |
| Mrpl33 (mitochondrial ribosomal protein L33) | 4 | 1.34 | -0.685 | 2.83 | -0.148 |
| Mrpl33 (mitochondrial ribosomal protein L33) | 5 | -0.685 | -0.685 | -0.623 | -0.747 |
| Mrpl33 (mitochondrial ribosomal protein L33) | 6 | -1.97 | -0.685 | -2.34 | -1.59 |
